The target of this experiment is T1, LEA5-Cnluc (BH-lea5-Cnluc) (Arabidopsis thaliana) (UniProt P42759).
T1 sequence: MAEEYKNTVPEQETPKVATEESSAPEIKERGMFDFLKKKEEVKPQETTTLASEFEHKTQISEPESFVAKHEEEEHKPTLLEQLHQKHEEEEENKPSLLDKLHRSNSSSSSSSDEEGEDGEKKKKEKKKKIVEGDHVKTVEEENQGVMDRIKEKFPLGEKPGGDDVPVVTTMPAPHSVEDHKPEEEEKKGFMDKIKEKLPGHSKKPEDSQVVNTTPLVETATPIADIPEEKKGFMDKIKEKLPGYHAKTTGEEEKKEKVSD
As to the kind of experiment: split reporter.

These are yes or no findings as the source states them, for the method shown. Binding seen in cells or lysates may run through a third protein. Where a sequence is shown, tags or fusion partners need not be part of it.

Regarding “LEA11-Nnluc (ZKlea11-Nnluc) (Arabidopsis thaliana)”, the binding result is reported as “no binding”.

The record behind these values is paper doi:10.1101/2025.10.27.684818.
